We go through seven sequences from article PMC4557955.

Construct, isoform or probe ends are uncertain for at least one entry. A weaker result is weaker than the reference pair of the same experiment.

This data set concerns BPs gp33103 repressor (short, prophage-encoded form) (Mycobacteriophage BPs). Nature of the data set: EMSA. The conditions noted are these: EMSA: 20 mM Tris pH 7.5, 10 mM EDTA, 25 mM NaCl, 10 mM spermidine, 1 mM DTT, 1 ug calf thymus DNA in 10 ul, room temperature 30 min, 5% native gel; recombinant protein; label: 5' 32P. A general note: Mobility shift assays separate free from complexed probe on a gel.
As to “GCATTTTCCAATAGACGACATTCGCGCCTATGTTGGTGCACA (double strand) [O61-L]”, the binding result is recorded as “binds more weakly”.
For the sequence “CACCGACGAAGTGCCACGATACTGACGACATATGTCGCAGCCTGG (double strand) [left half site ablated (5 bp apart)]”, the binding result is on record as “binds”.
The same measure for “CACCGACGCGACATATGTCGACTGAAAGTGCCACGATCAGCCTGG (double strand) [right half site ablated (5 bp apart)]”: “binds”; for “ACCGACGCGACATATGTCGACGCTTGACGACATATGTCGCAGCCT (double strand) [2 half sites 8 bp apart]”: “binds”; for “GCATTTTCCAATAGAGGACATATGCGGCTATGTTGGTGCACA (double strand) [O6-R]”: “binds more weakly”.
Regarding “GCATTTTCCAATAGATGACACTTGTCGCTATGTTGGTGCACA (double strand) [O55-R]”, the binding result is “binds more weakly”.
Take “CACCGACGCGACATATGTCGACTGACGACATATGTCGCAGCCTGG (double strand) [2 half sites 5 bp apart]”: the binding result was “binds”.
